Like-named read-outs stand apart in the source and are kept apart here. These are yes or no findings as the source states them, for the method shown. For some of these results: In cells and extracts the contact can be indirect. Some results given as binding are weak or reduced against the parent protein; the word gives no strength. For some of these results: Tags and fused reporters may be left off the sequences shown.

By UniProt entry, the sequences of proteins in these tests, tags left out. Where a name states a change or a piece, a line headed by the entry shows the natural chain unless it says otherwise. Chains listed by the source or under a name are the forms on record and can include a tag or linker. Residues count along the entry.
EphA2 receptor tyrosine kinase, wild type (P29317, residues 24-537): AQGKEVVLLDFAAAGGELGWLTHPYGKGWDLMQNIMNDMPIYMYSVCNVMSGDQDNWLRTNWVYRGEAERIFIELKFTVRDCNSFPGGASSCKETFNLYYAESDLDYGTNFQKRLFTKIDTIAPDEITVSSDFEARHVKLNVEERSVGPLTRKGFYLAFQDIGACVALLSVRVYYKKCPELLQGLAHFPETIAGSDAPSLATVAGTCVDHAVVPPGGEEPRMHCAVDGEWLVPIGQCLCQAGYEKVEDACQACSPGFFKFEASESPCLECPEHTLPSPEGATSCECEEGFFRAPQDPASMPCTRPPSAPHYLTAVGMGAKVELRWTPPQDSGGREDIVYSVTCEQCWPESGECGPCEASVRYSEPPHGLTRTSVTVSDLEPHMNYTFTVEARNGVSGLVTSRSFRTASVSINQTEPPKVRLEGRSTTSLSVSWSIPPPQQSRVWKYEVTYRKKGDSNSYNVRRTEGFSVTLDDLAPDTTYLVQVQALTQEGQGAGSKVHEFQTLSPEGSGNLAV
EphA2 D129N/G131S (LBD-LBD interface mutant) (P29317, form named): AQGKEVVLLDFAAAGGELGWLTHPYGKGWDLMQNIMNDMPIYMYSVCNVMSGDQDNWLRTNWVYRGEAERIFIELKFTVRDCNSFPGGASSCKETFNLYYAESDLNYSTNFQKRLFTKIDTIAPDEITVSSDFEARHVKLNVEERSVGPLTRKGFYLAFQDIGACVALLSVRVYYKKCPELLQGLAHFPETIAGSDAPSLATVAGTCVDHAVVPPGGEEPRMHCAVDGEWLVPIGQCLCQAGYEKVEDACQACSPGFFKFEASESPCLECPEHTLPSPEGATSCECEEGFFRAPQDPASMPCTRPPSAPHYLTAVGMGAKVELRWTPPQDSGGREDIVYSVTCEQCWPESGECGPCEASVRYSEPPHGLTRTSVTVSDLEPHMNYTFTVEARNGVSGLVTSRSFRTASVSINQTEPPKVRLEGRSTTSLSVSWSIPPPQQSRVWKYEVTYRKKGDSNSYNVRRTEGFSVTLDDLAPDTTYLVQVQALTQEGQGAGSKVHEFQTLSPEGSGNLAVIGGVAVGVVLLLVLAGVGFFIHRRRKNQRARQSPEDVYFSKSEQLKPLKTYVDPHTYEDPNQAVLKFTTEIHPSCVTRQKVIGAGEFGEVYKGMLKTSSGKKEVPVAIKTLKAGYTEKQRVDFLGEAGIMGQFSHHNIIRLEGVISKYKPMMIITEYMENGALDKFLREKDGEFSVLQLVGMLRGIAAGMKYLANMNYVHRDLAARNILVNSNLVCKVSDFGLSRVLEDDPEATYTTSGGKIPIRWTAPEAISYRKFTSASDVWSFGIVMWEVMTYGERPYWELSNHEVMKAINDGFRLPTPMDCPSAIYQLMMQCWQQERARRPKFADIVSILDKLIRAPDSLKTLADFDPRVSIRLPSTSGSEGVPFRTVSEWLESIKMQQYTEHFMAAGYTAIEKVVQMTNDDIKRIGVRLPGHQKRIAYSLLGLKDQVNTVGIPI
EphA2 L223R/L254R/V255R (Sushi-Sushi interface mutant) (P29317, form named): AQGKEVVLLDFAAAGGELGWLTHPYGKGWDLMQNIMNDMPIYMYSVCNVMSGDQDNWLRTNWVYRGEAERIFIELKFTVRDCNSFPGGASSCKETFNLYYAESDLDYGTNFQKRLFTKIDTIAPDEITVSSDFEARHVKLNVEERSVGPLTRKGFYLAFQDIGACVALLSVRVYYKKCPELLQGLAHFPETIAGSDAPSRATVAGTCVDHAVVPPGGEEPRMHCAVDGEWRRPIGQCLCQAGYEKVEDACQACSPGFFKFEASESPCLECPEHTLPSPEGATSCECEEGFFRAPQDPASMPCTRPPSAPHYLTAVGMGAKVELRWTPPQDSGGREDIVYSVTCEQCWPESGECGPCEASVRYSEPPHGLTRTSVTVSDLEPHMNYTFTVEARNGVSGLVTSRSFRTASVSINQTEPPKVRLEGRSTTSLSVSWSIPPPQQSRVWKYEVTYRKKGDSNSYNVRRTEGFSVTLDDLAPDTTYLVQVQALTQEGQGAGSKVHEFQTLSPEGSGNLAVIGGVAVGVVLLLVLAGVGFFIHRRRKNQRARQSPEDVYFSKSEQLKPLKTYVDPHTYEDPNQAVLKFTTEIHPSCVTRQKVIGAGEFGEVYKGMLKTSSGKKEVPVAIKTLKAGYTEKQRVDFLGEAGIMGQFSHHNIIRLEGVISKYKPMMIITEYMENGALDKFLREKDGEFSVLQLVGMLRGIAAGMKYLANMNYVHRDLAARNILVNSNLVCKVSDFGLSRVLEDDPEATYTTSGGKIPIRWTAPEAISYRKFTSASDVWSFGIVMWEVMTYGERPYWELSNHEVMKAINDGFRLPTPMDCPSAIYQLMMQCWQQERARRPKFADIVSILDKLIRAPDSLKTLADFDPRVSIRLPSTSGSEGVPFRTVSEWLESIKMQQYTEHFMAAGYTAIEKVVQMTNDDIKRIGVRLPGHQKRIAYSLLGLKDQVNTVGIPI
EphA2 LS compound mutant (LBD and Sushi interfaces disrupted) (P29317, form named): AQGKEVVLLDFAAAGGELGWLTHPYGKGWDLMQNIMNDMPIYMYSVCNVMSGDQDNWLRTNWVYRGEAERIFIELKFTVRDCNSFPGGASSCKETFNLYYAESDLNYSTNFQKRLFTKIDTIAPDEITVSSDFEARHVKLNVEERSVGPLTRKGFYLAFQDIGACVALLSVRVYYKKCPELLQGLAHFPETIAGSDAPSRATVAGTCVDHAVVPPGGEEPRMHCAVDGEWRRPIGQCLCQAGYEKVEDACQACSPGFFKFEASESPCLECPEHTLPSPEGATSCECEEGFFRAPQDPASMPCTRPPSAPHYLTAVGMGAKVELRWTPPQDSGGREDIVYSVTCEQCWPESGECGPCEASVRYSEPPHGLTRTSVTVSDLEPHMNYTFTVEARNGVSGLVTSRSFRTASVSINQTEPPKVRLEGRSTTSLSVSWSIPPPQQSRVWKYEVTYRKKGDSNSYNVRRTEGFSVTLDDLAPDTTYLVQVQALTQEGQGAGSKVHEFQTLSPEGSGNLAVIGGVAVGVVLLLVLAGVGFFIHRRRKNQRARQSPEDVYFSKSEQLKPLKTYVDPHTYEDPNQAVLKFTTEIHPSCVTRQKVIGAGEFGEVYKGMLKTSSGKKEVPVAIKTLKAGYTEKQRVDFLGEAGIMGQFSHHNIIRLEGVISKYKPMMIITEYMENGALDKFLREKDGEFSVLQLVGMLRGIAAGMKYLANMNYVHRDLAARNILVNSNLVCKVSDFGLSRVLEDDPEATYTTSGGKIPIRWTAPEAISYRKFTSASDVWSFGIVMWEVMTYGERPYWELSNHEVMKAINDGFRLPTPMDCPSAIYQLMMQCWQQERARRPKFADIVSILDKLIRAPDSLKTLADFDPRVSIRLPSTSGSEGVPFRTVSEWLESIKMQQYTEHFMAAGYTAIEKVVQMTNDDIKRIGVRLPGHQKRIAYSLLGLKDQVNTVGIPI
EphA2 N483L/R485E (LBD-FN2 interface mutant) (P29317, form named): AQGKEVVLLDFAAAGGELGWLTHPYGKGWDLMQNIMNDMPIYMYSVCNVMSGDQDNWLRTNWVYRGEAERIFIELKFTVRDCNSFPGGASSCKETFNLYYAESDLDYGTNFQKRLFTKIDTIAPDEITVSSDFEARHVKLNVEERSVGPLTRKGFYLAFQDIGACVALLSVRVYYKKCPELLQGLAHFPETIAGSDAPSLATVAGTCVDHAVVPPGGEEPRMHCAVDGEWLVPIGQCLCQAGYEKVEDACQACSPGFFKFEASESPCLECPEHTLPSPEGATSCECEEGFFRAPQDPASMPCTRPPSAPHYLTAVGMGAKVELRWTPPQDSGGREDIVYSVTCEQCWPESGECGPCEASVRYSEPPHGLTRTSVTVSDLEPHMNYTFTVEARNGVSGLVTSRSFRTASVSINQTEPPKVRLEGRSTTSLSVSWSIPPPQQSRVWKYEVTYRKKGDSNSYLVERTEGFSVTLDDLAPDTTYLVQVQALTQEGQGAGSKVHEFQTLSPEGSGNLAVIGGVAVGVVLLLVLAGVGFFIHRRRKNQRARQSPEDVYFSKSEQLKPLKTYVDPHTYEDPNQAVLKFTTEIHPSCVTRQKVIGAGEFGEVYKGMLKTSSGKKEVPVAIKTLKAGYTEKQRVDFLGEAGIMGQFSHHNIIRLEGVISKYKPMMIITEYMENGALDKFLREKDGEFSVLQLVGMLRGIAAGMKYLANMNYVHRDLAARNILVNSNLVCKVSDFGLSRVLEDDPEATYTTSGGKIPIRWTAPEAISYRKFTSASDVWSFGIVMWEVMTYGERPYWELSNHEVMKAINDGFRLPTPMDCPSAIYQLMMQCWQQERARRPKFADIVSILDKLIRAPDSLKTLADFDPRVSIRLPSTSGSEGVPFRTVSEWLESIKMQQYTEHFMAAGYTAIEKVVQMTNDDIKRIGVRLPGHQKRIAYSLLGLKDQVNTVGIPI
EphA2 P378E (FN1-FN1 interface mutant) (P29317, form named): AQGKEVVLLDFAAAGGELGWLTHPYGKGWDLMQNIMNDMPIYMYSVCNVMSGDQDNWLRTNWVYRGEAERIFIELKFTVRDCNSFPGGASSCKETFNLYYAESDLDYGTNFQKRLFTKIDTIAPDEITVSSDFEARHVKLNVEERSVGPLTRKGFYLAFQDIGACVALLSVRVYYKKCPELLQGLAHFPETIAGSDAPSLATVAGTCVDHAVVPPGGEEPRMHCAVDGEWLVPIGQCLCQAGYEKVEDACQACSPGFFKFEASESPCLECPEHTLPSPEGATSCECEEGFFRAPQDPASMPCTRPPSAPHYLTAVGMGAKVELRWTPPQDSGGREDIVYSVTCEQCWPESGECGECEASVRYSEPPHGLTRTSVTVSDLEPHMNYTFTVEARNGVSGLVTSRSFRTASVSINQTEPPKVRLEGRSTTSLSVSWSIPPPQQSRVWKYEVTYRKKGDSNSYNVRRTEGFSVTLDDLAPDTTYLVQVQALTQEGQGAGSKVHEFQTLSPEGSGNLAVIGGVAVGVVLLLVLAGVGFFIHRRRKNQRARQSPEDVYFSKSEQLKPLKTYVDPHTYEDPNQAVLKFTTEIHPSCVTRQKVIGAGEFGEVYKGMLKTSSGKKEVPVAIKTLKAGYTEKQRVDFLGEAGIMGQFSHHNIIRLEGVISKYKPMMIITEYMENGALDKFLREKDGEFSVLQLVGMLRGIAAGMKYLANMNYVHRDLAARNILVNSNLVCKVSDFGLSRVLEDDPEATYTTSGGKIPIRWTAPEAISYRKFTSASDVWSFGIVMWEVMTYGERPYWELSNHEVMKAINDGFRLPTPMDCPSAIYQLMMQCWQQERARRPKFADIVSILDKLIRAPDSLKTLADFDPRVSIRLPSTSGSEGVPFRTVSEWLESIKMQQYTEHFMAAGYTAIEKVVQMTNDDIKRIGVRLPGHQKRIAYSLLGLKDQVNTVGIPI

For test [1], the target named is EphA2 D129N/G131S (LBD-LBD interface mutant) (UniProt P29317). Put plainly: PIE-FCCS.
For test [2] the target is unchanged. Put plainly: PIE-FCCS. The source holds these as a separate data set.
Test [3] has as its target EphA2 L223R/L254R/V255R (Sushi-Sushi interface mutant) (UniProt P29317). The test can be described thus: PIE-FCCS.
Test [4] addresses EphA2 LS compound mutant (LBD and Sushi interfaces disrupted) (UniProt P29317). Put plainly: PIE-FCCS.
For test [5], the target named is EphA2 N483L/R485E (LBD-FN2 interface mutant) (UniProt P29317). Put plainly: FRET or BRET. (In general: BRET reads energy transfer from a luciferase to a nearby fluorophore.)
Test [6] shares this target. The test can be described thus: FRET or BRET. This is another data set of the same source.
For test [7] the target is unchanged. Put plainly: PIE-FCCS.
Test [8] concerns the target EphA2 P378E (FN1-FN1 interface mutant) (UniProt P29317). The test can be described thus: PIE-FCCS.
Test [9] addresses EphA2 receptor tyrosine kinase, wild type (UniProt P29317). The test can be described thus: FRET or BRET.
For test [10] the target is unchanged. Put plainly: PIE-FCCS.
Test [11] shares this target. Put plainly: PIE-FCCS. This is another data set of the same source.
Test [12] has the same target. The test can be described thus: PIE-FCCS. The source holds these as a separate data set.
The target is the same in test [13]. The test can be described thus: PIE-FCCS. This is another data set of the same source.
Test [14] shares this target. Put plainly: PIE-FCCS. This is another data set of the same source.
The target in test [15] is T1, ephrin-A1 on the cell surface, GFP or mCherry inserted after the signal sequence, P20827.
T1 chain: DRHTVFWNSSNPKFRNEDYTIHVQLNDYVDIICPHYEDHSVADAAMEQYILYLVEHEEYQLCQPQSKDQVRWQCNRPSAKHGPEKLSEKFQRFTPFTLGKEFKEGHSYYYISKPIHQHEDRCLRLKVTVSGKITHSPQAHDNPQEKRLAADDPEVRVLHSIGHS
Put plainly: PIE-FCCS. The conditions noted are these: remark: other sources report otherwise.

On to “EphA2 D129N/G131S (LBD-LBD interface mutant) (from UniProt P29317 24-976) (receptor)”, for which the binding result in test [1] and in [2] was “binds” each time.

With “EphA2 L223R/L254R/V255R (Sushi-Sushi interface mutant) (from UniProt P29317 24-976) (receptor)”, the binding result in [3] is recorded as “binds”.

Regarding “EphA2 LS compound mutant (LBD and Sushi interfaces disrupted) (from UniProt P29317 24-976) (receptor)”, the binding entry in test [4] is “binds”.

“EphA2 N483L/R485E (LBD-FN2 interface mutant) (from UniProt P29317 24-976) (receptor)”: the binding entry in test [5], in test [6] and in test [7] was “binds” throughout.

Consider “EphA2 P378E (FN1-FN1 interface mutant) (from UniProt P29317 24-976) (receptor)”, for which the binding entry in test [8] is on record as “binds”.

For “EphA2 receptor tyrosine kinase, wild type (from UniProt P29317)”, the binding result in test [9], in [10], in [11], in [12], in test [13] and in test [14] was “binds” throughout.

As for “monomeric ephrin-A1 (from UniProt P20827 19-182) (ligand)”, the binding entry in test [4] is listed as “binds”.

B1: ephrin-A1 on the cell surface, GFP or mCherry inserted after the signal sequence, P20827 19-182 (ligand)
chain: T1 chain
B1: in test [15], the binding entry is listed as “no binding”.

Source of the values: publication doi:10.1101/2021.04.11.439330.
